Data as given in the supplement of paper PMC10338343.
± gives the standard deviation. Some of the results follow. The uncertainty is large for many entries.

Tested on: EfPiwi piRISC loaded with L1MC piRNA (26 nt)
Assay: pre-steady-state target cleavage rate (min^-1); guide: L1MC piRNA 5'p-UAACUAAAUACUAUGCAAGCUGUAGG; MIWI and MILI are mouse PIWI proteins and EfPiwi is from a freshwater sponge; tags in brackets are library labels; higher = faster piRNA-guided slicing of the target
Procedure, shortened: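 Sequencing of uncleaved targets, normalised to depth and to weakly complementary targets, was the readout of this Cleave-'n-Seq assay. A transcribed, DNA-blocked target RNA library (0.1 nM) was mixed with 1 nM active affinity-purified piRISC carrying one synthetic guide, with or without 500 nM GTSF1 partner protein, in HEPES–potassium acetate buffer at 33 °C for 0–8 or 0–960 min. Three trials were pooled, k3 was capped at 0.0001 min^-1, and a burst-and-steady-state fit gave the pre-steady-state cleavage rate.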

[1] = auxiliary factor: 500 nM Ephydatia muelleri Gtsf1
[2] = auxiliary factor: none (no Gtsf1)

Sequence | pre-steady-state target cleavage rate [1] | pre-steady-state target cleavage rate [2]
UCCUGCUACAGCAUGGAUAGUAUUUAGUUA | 0.00804 ± 0.0023 | 0.000918 ± 0.0066
UCCUGGAAGAGCUUGCAUAGUAAUUAGUUA | 0.00806 ± 0.0027 | 0.00195 ± 0.0076
UCCUGCUUCAGCUUGCAUACUAUUUAGUUA | 0.00801 ± 0.0025 | 0.000998 ± 0.0089
UCCUGGUAAAGCUUGCAUAGUAUUUAGUUA | 0.00606 ± 0.002 | 0.000716 ± 0.015
UCCUGGAUGAGCUUGCAUAGAAUUAAGUUA | 0.000467 ± 0.015 | 0.000668 ± 0.012
UCCUGGUACAGCUAGCAUAGUAUUUAGUUA | 0.0085 ± 0.0027 | 0.00072 ± 0.0081
UCCUGGAUGUGCUUGCAUAGUAUAUAGUAA | 0.000759 ± 0.0047 | 0.000279 ± 0.032
UCCUGGAUGUGCUUGCAUACUAUUUACUUA | 0.000701 ± 0.0075 | 0.000214 ± 0.045
UCCUGGAUGAGCUUGCAUACUAAUUAGUUA | 0.00252 ± 0.0026 | 0.000309 ± 0.022
UCCUGGAUCAGCUUGCUAUGUAUUUAGUUA | 0.00195 ± 0.0049 | 0.00054 ± 0.014
UCCUGGAUCAGCUUGCAUAGUAUUUUGUAA | 0.00202 ± 0.0021 | 0.000136 ± 0.03
UCCUGCUACAGCUUGCAUUGUAAUUAGUUA | 0.00519 ± 0.0025 | 0.000814 ± 0.0068
UCCUGGAUGUCGAACGUAUGUGAUUUAGUUA | 0.000101 ± 0.03 | < 0.0001
UCCUGCUACAGCAUGCAUUGUAUUUAGUUA | 0.0119 ± 0.0032 | 0.000981 ± 0.0075
UCCUGGUACAGCUUGCAUAGUCUUUAGUUA | 0.00738 ± 0.0024 | 0.000671 ± 0.02
UCCUGGAUGUCCUUGCAUAGUAUCUUAGUUA | 0.00294 ± 0.0039 | 0.000887 ± 0.0094
UCCUGGAUGAGCAUGCAUAGUAUUAAGUUA | 0.00264 ± 0.0032 | 0.00229 ± 0.0052
UCCUGGUACAGGUUGCAUACUAUUUAGUUA | 0.00258 ± 0.002 | 0.000728 ± 0.015
UCCUGGAUGUCGAACGUAUGUCUUUAGUUA | < 0.0001 | < 0.0001
UCCUCCUACAGCAUGCAUAGUAUUUUGUUA | 0.00297 ± 0.0021 | 0.000353 ± 0.012
UCCUGCUAGAGCUUGCAUAGUAUUAAGUUA | 0.00624 ± 0.0022 | 0.000702 ± 0.0084
UCCUGCUACACCUUGCAAAGUAUUUAGUUA | 0.00571 ± 0.0021 | 0.00103 ± 0.0087
UCCUGGUACAGCAUGCAAAGUAUUUAGUUA | 0.00646 ± 0.0023 | 0.00142 ± 0.006
UCCUGGUACAGCUAGCAUACUAUUUAGUUA | 0.00217 ± 0.0031 | 0.000461 ± 0.021
UCCUGGAUGAGCUUGGAUAGUUUUUAGUUA | 0.0011 ± 0.0031 | 0.00091 ± 0.011
UCCUGCUACACCUUGCAUUGUAUUUAGUUA | 0.00323 ± 0.0025 | 0.000313 ± 0.023
UCCUGGAUGUGCUUGGAUACUAUUUAGUUA | 0.000439 ± 0.011 | 0.000229 ± 0.039
UCCUGGAACAGCUUGCAUUGUAUAUAGUUA | 0.00303 ± 0.0036 | 0.000648 ± 0.014

A second format for some results above:
Sequence,pre-steady-state target cleavage rate [1],pre-steady-state target cleavage rate [2]
UCCUGGUAAAGCUUGCAUAGUAUUUAGUUA,0.00606 ± 0.002,0.000716 ± 0.015
UCCUGGAUGAGCUUGCAUACUAAUUAGUUA,0.00252 ± 0.0026,0.000309 ± 0.022
UCCUGGAUCAGCUUGCAUAGUAUUUUGUAA,0.00202 ± 0.0021,0.000136 ± 0.03
UCCUGGAUGUCGAACGUAUGUGAUUUAGUUA,0.000101 ± 0.03,< 0.0001
UCCUGCUACAGCAUGCAUUGUAUUUAGUUA,0.0119 ± 0.0032,0.000981 ± 0.0075
UCCUGGUACAGGUUGCAUACUAUUUAGUUA,0.00258 ± 0.002,0.000728 ± 0.015
UCCUGCUAGAGCUUGCAUAGUAUUAAGUUA,0.00624 ± 0.0022,0.000702 ± 0.0084
UCCUGCUACACCUUGCAAAGUAUUUAGUUA,0.00571 ± 0.0021,0.00103 ± 0.0087
UCCUGGUACAGCAUGCAAAGUAUUUAGUUA,0.00646 ± 0.0023,0.00142 ± 0.006
UCCUGCUACACCUUGCAUUGUAUUUAGUUA,0.00323 ± 0.0025,0.000313 ± 0.023

Remaining list, next part

Sequence | pre-steady-state target cleavage rate [1] | pre-steady-state target cleavage rate [2]
UCCUGGUACAGCUUGCAUAGUAUCUUAGUUA | 0.00588 ± 0.0027 | 0.000403 ± 0.042
UCCUGGAUCAGCUUGCAAAGUAUUUUGUUA | 0.0012 ± 0.0034 | 0.000697 ± 0.013
UCCUGGAUGAGGUUGCAUAGUAUUUUGUUA | 0.00143 ± 0.0024 | 0.000748 ± 0.011
UCCUGGAUGAGCUUGCAUAGUAUUUAUGUUA | 0.0018 ± 0.003 | 0.00179 ± 0.0071
UCCUGGAUGUCGAUGCAUAGAAUAUAGUUA | 0.000114 ± 0.027 | 0.000308 ± 0.025
UCCUGGAUGAGCGUGCAUAGUAUUUAGUUA | 0.0239 ± 0.0062 | 0.00176 ± 0.0078
UCCUGGAUCAGGUUGCAUAGUUUUUAGUUA | 0.00481 ± 0.0024 | 0.000404 ± 0.027
UCCUGGAUCAGCUUGCAUAGUAGUUAGUUA | 0.0207 ± 0.0049 | 0.0324 ± 0.012
UCCUGGAAGAGCUUGCAUACUAUUUAGUUA | 0.00438 ± 0.0026 | 0.00581 ± 0.0041
UCCUGGUACAGCUUGCUAGUAUUUAGUUA | 0.00174 ± 0.0061 | 0.00122 ± 0.0072
UCCUGGAUGAGCUUGCUUAGUAUAUAGUUA | 0.00154 ± 0.0044 | 0.000988 ± 0.0099
UCCUGGAUGUGCUUGCAUAGUAUUCUAGUUA | 0.00114 ± 0.0049 | 0.000537 ± 0.018
UCCUGGUACAGCUUGUCAUAGUAUUUAGUUA | 0.00651 ± 0.0024 | 0.00275 ± 0.0049
UCCUGGAUGAGCUUGCAUACUAUUAAGUUA | 0.00231 ± 0.0024 | 0.000315 ± 0.036
UCCUGGUUGAGCUUGCAUAGUAUUUAGAAA | 0.00175 ± 0.0033 | 0.000636 ± 0.013
UCCUGGAUGAGCUUAGCAUAGUAUUUAGUUA | 0.0344 ± 0.0086 | 0.00174 ± 0.0061
UCCUGGAUGUCCUUGCAUAGUACUUAGUUA | 0.00586 ± 0.0027 | 0.000579 ± 0.011
UCCUGGAUGAGCUUGCAUUGUAUAUAGUUA | 0.00208 ± 0.006 | 0.000447 ± 0.019
UCCUGGUACAGCUUGCUUAGUAUUUAGUAA | 0.00376 ± 0.0023 | 0.000726 ± 0.012
UCCUGGAUGAGCUUGCAUAGCAUUUAGUUA | 0.0029 ± 0.0019 | 0.00185 ± 0.0058
UCCUGGAUGACCUUGCUUAGUAUUUAGUUA | 0.000711 ± 0.005 | 0.000812 ± 0.012
UCCUGGAACAGCUUGCAUAGUAUGUUAGUUA | 0.00812 ± 0.0028 | 0.000243 ± 0.045
UCCUGGUUCAGCAUGCAUAGUAUUUAGUUA | 0.0347 ± 0.0092 | 0.00336 ± 0.005
UCCUCCUACAGCUUGCAUAGAAUUUAGAAA | 0.00385 ± 0.0019 | 0.000377 ± 0.012
UCCUGGAUGUGCUUGCAUAGUAUGUUAGUUA | 0.00406 ± 0.0038 | 0.000831 ± 0.013
UCCUGGAUGAGGUUGCAAAGUAUUUAGUUA | 0.00144 ± 0.0032 | 0.000638 ± 0.013
UCCUGCUACAGCUUGGUAAGUAUUUAGUAA | 0.00104 ± 0.0066 | 0.000382 ± 0.015
